We go through 107 sequences from PubChem BioAssay AID1508600 (Functional Genomics Laboratory (NCATS/FGL), 2020).

The campaign covered roughly 53,000 sequences. About 3,700 (7%) were called active.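 The calls were made as follows: active = gene knockdowns whose robust z-score for IL-1 alpha signal is at least 2 or at most -2, so actives lie on both sides; inactive = the rest.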 This is one part of the list.

The assay in a line: Components of the Cytosolic LPS Sensing Pathway: Gene Identification via Genome-wide siRNA Screen.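 Also: robust z of the log signal after scaling to non-targeting control siRNA wells of the plate.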 The conditions noted are these: RAW264.7 macrophages, IL-1a HTRF, actives lie on both sides, screened at 100 nM (by protocol), cells primed 5 h with Pam3CSK4 first. The procedure, abridged: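 IL-1a HTRF of supernatants after 24 hour LipidA transfection of Pam3CSK4-primed (5 hours) RAW264.7 cells, 48h post-siRNA transfection (100 nM). Scores: percent of plate negative-control median, then log-based robust z-score.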
(In TR-FRET formats the signal depends on donor and acceptor labels being close together.)
In the case of GCAAUGGAUUUCAAUUGACTT against Fam167a, the z-score is inactive: -0.33.

Regarding GGAAUGGUGAUAGCCACACTT against Olfr24, the z-score is inactive: 0.565.

In the case of CGCUCUGUAGUUUCCUUUCTT against Camk1d, the z-score was inactive: 1.17.

In the case of “GGGAUAAAGGCACUUUGUATT against Csgalnact1”, the z-score was inactive: -0.476.

GGCUGAUGUGGAAGGGAUGTT against Lefty1: the z-score is inactive: -0.159.

In the case of GGAAACAGGGCUACGACAGTT against Nxpe4, the z-score is inactive: -0.0851.

For CCGAACUUUCAUUCAAUAUTT against Tmem260, the z-score is inactive: 0.112.

Consider GGUUGAUAGGAUAUGGUCCTT against Klhl31, for which the z-score was inactive: -0.437.

For the sequence GGAUAACCCUAAGUUUAUGTT against Clu, the z-score was inactive: 0.753.

For GGAGAACCCUUAUGUGACATT against Pik3ca, the z-score was inactive: -1.91.

As for GUUUCUCGAAGAGCAUCCUTT against Cyb5a, the z-score was inactive: 0.732.

GGAAGAAAAGGUGUUUACATT against Gpr143: the z-score was inactive: 0.86.

Turning to “CGAUUGAUGACAAAUGGAATT against 9330175E14Rik”, the z-score is inactive: -1.65.

Take GGAAAUAGAGGGAGAAUAATT against Ccdc169: the z-score was inactive: -0.892.

Regarding GCUACUAAGCACCUAGAGATT against Fxr2, the z-score was inactive: -0.932.

Consider GGAGAAGGAAAUUCAGAAATT against Gnpda1, for which the z-score was inactive: 0.957.

For the sequence GUAGGAAGGAGUGAGCAUUTT against Gm10037, the z-score is inactive: 1.03.

In the case of GGAUGAAGGAAUCCAUGCATT against Pcdhga6, the z-score was inactive: -0.133.

In the case of GGCUCAGCUCAUGAACGACTT against Acvr2b, the z-score is inactive: -0.00307.

As to GGAAAUAGCCAGAAUAAGGTT against Baiap2l1, the z-score is inactive: -0.976.

Turning to GGAUCACAUGAAAGGAUUATT against Dclre1c, the z-score is inactive: -0.242.

As for GCUGCCUGAGUCCAGUCUUTT against Ear14, the z-score is inactive: -1.89.

With GCUACUCAGCUGCUUAAGCTT against Rpl7a, the z-score is inactive: -0.154.

Take GGGCCACCCAAAACAUCUUTT against Vmn1r19: the z-score is inactive: -0.456.

Consider GCUGAACCUGCAGCACAUCTT against Mettl7a2, for which the z-score is inactive: -0.0665.

In the case of GCCAUACAUAAACUACAAUTT against Gulo, the z-score is inactive: -0.175.

Regarding CGCAAAGUGGACAAACGUATT against Kcne3, the z-score was inactive: 0.0218.

With CUGAAACAUCCGUACACUCTT against Svs3a, the z-score is inactive: -1.06.

As to GGAAACUAGAUAGGACAAATT against Podn, the z-score is inactive: 0.483.

Turning to GGCAUAAUUCGAGAUAUCATT against Plcxd3, the z-score is inactive: -1.15.

For GGAAAUCAGAUUCCUUAAATT against Rmdn2, the z-score was inactive: 0.197.

Take CCUUUAAAUGACCAUACUUTT against Eny2: the z-score is inactive: -0.21.

For the sequence GGUUGAAAAUGUUGUCAGGTT against Atpsckmt, the z-score was inactive: -0.733.

Regarding CCAAGAUUUAUCAACUCAGTT against Aqp1, the z-score is inactive: -0.796.

Regarding GGGUUGGAAAUAAAUAACGTT against Commd9, the z-score was inactive: 0.942.

Consider GGUUUCUUGGACAGAAGUGTT against Nlrp4a, for which the z-score is inactive: -0.0759.

With CCUCAGAGUGAUAACUAAATT against Ctdsp1, the z-score was inactive: 0.847.

GGUUUACCAGGAAAAUUGATT against Txnrd3: the z-score is inactive: -1.09.

Regarding CCUAAUAUAGUUGAGGAUGTT against Tgs1, the z-score was inactive: -0.319.

GCGAAUCCAAGCUGGAUAGTT against Nfkbiz: the z-score was inactive: -0.78.

As for CCUCUCACGCUACAGCUGUTT against Nfatc1, the z-score is inactive: 1.28.

As to GCAGUCGACAAAGUAUUUCTT against Msx3, the z-score is inactive: 0.0956.

With GGUUCUCUGUAGUUUAAAATT against Selp, the z-score is inactive: 0.104.

On to GGACAAGGCAACACAUACCTT against Csnk1a1, for which the z-score is active: 2.58.

For GGAAAAAGUGCAUUUAUGUTT against Prpf40a, the z-score was inactive: -1.16.

Turning to GAUGGUGUCUAUCGAGAGCTT against Oxct2a, the z-score was inactive: -1.15.

As to GCCGGAUCCUAAAGAGUCATT against Ska1, the z-score is inactive: -0.502.

For the sequence GCCGAUUCUCAUAUUUGACTT against Exo1, the z-score is inactive: -0.742.

In the case of GCCUUUGAUAGUGGUGAAUTT against F11r, the z-score is active: -3.

CCUCAUUCAGUAUGUCGCATT against Atg2b: the z-score is inactive: -0.227.

With GGAUAAAAGACUGAACAGUTT against Gpatch1, the z-score was inactive: -0.533.

On to CGCAUAGAGCCUGUCCUCATT against Spink1, for which the z-score was inactive: -1.57.

In the case of GGCAAAGAGGAAAAGAGUGTT against Gtf2h2, the z-score is inactive: -0.543.

Regarding CCUGCUUUCUCUAUACCUATT against Hrob, the z-score is inactive: 1.2.

Consider GCAAUAAGGGCAUUAUAAATT against Wdhd1, for which the z-score is inactive: -0.407.

Consider GGUCAUUUUGUUUCGCUUUTT against Fgf5, for which the z-score was inactive: -0.232.

Take GCAUCUCCCAACCAUGAUGTT against Myl3: the z-score was inactive: 0.292.

With AAGACUUGAUCUGAGCAGATT against Ecm2, the z-score is inactive: 0.361.

On to GGAACUCCAACAGGACUUUTT against Slc26a9, for which the z-score is inactive: -0.565.

On to CCAUGUUUAUGGCACGCUGTT against Postn, for which the z-score is inactive: 0.536.

As to GGUGUUCGAUGGACGUGAUTT against Bmp1, the z-score was inactive: -0.183.

On to GGUUUUCUCAGACUACUCGTT against Lmtk3, for which the z-score is inactive: 0.524.

Regarding GCGGCUCACAAGAGUAUCGTT against Bend5, the z-score was inactive: -0.0337.

Regarding CCGGAGGUUUAGAAGAGGATT against Cep128, the z-score is inactive: 1.61.

As for GGGAAUGAAUUCAUCUAAATT against Tbc1d1, the z-score is inactive: -0.115.

With GGGUUUGUAAUAAUGCUUGTT against Cmtm6, the z-score is inactive: 0.671.

With GGUGUAACACUCAUUUAUCTT against Ifitm3, the z-score is active: 2.88.

As for CGAUGCUGUUCUUCAAUGUTT against Krt222, the z-score is inactive: 1.23.

As to GCGAUAUAAGAGAGACAAGTT against Tmem40, the z-score was inactive: 0.982.

GGAAUGAGCUGAAUGCAAATT against Psmc5: the z-score was active: -2.08.

On to GACUCUCACCUCCUUGAAUTT against Krtap6-5, for which the z-score was inactive: 0.645.

GGAGUCUGAAGAAUACUCUTT against Rbbp8nl: the z-score is inactive: 0.467.

For GAGAACGCGUUUUUGGGACTT against Defa5, the z-score is inactive: 1.66.

In the case of GCUUUACAUCUUUGAAUGGTT against Bpifa2, the z-score was inactive: -0.596.

As to GGAGGUGGUGAAUAAGGAUTT against Mcm7, the z-score was inactive: 0.409.

GGCAAACUCGGGUAUACACTT against Mybpc1: the z-score is inactive: 0.394.

On to GGACUUGAAAGACGAGAUATT against Cyp19a1, for which the z-score is inactive: 0.31.

As for GGCUGACAUUAAAAAGGCATT against Dnajc16, the z-score is inactive: -0.384.

For CGGAUUUUGAACUAACGCATT against Plcxd1, the z-score was inactive: -1.11.

As to GGAGGAAAAAAAACAGUGATT against Trim7, the z-score was inactive: -0.487.

GGAGGAAGAAGACUCAGAATT against Prkag2: the z-score is active: 3.46.

For GGAGAUAAAGGGAACACCATT against Rtf2, the z-score was inactive: -0.384.

As to GGAUUGUCAAAAUGUGGACTT against Smyd2, the z-score was inactive: -1.32.

With GGUCUCGCUCCAAGGAAGATT against Tra2b, the z-score is active: 2.56.

Consider GCAGUUGGGUUGGUAACUATT against Ash1l, for which the z-score was inactive: 0.101.

Consider GGAGAAUCAAUGAGUAUCCTT against Apoe, for which the z-score was inactive: 0.192.

Take GGUUGUUAAAGGAAAACUATT against Olfr1023: the z-score is inactive: 0.949.

For the sequence GGAUUGAGUGAACCCUCCCTT against Rpl36, the z-score is inactive: 1.02.

GGUCCAGUGAAAUAAUAUCTT against Orc3: the z-score is inactive: 0.774.

For GGUCACAUUCGCUCUCUUGTT against Olfr1155, the z-score was inactive: 0.238.

CGUGAUUGUGGACCAUUCUTT against Mif4gd: the z-score was inactive: 0.555.

“GGGAAGGAAGAAUUUAUUUTT against 6430571L13Rik”: the z-score was inactive: 1.24.

“CCAGACCUGUGGUAAUCUATT against D3Ertd751e”: the z-score is inactive: -0.875.

Regarding GGCUUAACAGAGAAACACCTT against Lrrc49, the z-score is inactive: 0.563.

As for GCCCAUGAUAAAAGAAGAATT against Pex1, the z-score was inactive: -0.429.

For GGUGGUCAAUCGGAAGCUCTT against Ppp6r1, the z-score was inactive: 0.482.

For the sequence GAACAAGGCGGACUUCCAATT against Dad1, the z-score is inactive: 1.16.

As to GGAGUGCUAUGACAAUUUUTT against Slc12a1, the z-score is inactive: 0.197.

For GGAGCUCUUUUUGAACACUTT against Sgcg, the z-score was inactive: 0.946.

With GGCCGUGUCAUUCAUUGGCTT against Adssl1, the z-score is inactive: -0.161.

Regarding GGGUUGUCGUUCAGUUUACTT against Art2a, the z-score was active: 2.8.

For CCCGUCAAAUAUGAAUACCTT against Klk1, the z-score is inactive: 0.273.

For GCAGCACGAACUGAUGACGTT against Plcd3, the z-score is active: -2.18.

Consider GGUCUUUGAGUCUACACAGTT against Pde4dip, for which the z-score is active: -2.52.

For the sequence GGACUCUGAUCUGGAGUAGTT against Slc51a, the z-score is inactive: -0.397.

Regarding GGAAAACUUUCAAAGAGAUTT against Mc4r, the z-score is inactive: 0.24.

As for GCAUCUGAUCUACCAGUCGTT against Prdm9, the z-score is inactive: 1.4.
